This is one part of the list. These are further read-outs of the screen, such as a control signal, another cell line or another target. No call is given for them. Compounds called inactive in the main read-out are mostly missing here. Potencies come from curve fits of mixed quality, noted in brackets.

The assay can be described thus: qHTS Assay for Lipid Storage Modulators in Drosophila S3 Cells.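 As to cell number change: cells counted by Cell Tracker Red CMTPX staining in the red channel.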 Particulars: BODIPY lipid droplet fluorescence, 18-24 h; for cell number change: measured here: cell count max response, cells fed with added oleic acid. In a few lines: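 Laser-scanning cytometry quantifies lipid droplet accumulation (500–530 nm total intensity; droplet/cell object ratio) in oleic acid-fed (400 uM added) Drosophila S3 cells treated with a concentration series. 20 uM Triacsin C defined 100% inhibition.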

Where [1] appears, read: measured here: lipid fluorescence (Fed channel) AC50, cells fed with added oleic acid.
The mark [2] stands for this setting: measured here: cell number channel AC50, cells fed with added oleic acid.

Consider `COc1ccccc1CNC(=O)c1ccc(CS(=O)(=O)c2ccccc2OC)o1`, for which the cell number change is -13.9%. The half-maximal activity concentration (AC50) under setting [1] is 4.11 µM [rising, single point].
`C=CCOCCN(C)C1=NS(=O)(=O)c2cc([N+](=O)[O-])ccc21`: the cell number change was -24.5%. Also, the AC50 under setting [2] was 0.411 µM [falling, full curve, poor fit]. For the same molecule, under setting [1], the AC50 is 18.4 µM [falling, partial curve, poor fit].
Consider `CCOc1ccccc1-n1nnnc1SCC(=O)NCc1ccco1`, for which the cell number change was -30.7%. The AC50 under setting [2] was 13 µM [falling, partial curve, poor fit]. Under setting [1], the AC50 is 5.8 µM [falling, full curve].
Take `COc1ccccc1NC(=O)C(=N\O)/C(C)=N/O`: the cell number change was -8.46%. Further, the AC50 under setting [1] was 6.51 µM [falling, single point].
As for `CSc1nc(-c2ccco2)nn1C(=O)c1ccc(Cl)cc1`, the cell number change was -9.86%. Further, under setting [1], the AC50 is 29.1 µM [rising, single point].
`CC[C@@H](C)C(N)c1cn([C@@H](CCC(=O)O)C(=O)N2CCNCC2)nn1` (some centres not stated): the cell number change amounted to 2.44%. Moreover, the AC50 under setting [1] is 0.731 µM [rising, single point].
As for `Cc1cc(NS(=O)(=O)c2ccc(NC(=O)COc3ccc(Cl)c(C)c3)cc2)no1`, the cell number change is 19.8%. For the same molecule, the AC50 under setting [1] is 6.51 µM [rising, partial curve, poor fit].
In the case of `COCc1c(C#N)c(NCCc2ccc(F)cc2)nc(C)c1[N+](=O)[O-]`, the AC50 is, setting by setting: under setting [2], 6.51 µM [rising, single point]; under setting [1], 13 µM [falling, partial curve].
In the case of `Cc1ccc(O)c(NC(=O)c2cc([N+](=O)[O-])ccc2Cl)c1`, the cell number change is -38.5%. Under setting [2], the AC50 was 29.1 µM [falling, single point]. The concentration at half-maximal activity (AC50) under setting [1] is 29.1 µM [falling, single point].
As for `COc1ccc(NS(=O)(=O)c2cc(NC(=O)c3ccc(C)o3)ccc2N2CCCCC2)cc1`, the cell number change is -32.7%. Also, the half-maximal activity concentration (AC50) under setting [2] was 29.1 µM [falling, single point]. Also, under setting [1], the AC50 was 29.1 µM [falling, single point].
For the molecule `O=C(Nc1ccccc1)Nc1ccc(NC(=O)c2ccccc2O)cc1`, the cell number change is 0.709%.
`O=C(Nc1ccc(O)c(C(=O)O)c1)c1cccc(NC(=O)c2ccco2)c1`: the cell number change came out at 30.4%. Moreover, under setting [2], the AC50 is 32.6 µM [rising, partial curve, poor fit]. Further, the AC50 under setting [1] is 29.1 µM [rising, partial curve, poor fit].
Turning to `CC(C)CN1C(=O)C(=O)N(CC(=O)Nc2cccc(Cl)c2Cl)C1=O`, the cell number change was found to be 7.64%. For the same molecule, the AC50 under setting [1] is 6.51 µM [rising, partial curve].
Consider `CC1Sc2ccc(C(=O)Nc3ncccc3O)cc2NC1=O` (configuration not stated), for which the cell number change stood at 16.1%.
Take `Cc1ccc(S(=O)(=O)N2CCCN(C(C)c3nc4ccccc4c(=O)[nH]3)CC2)cc1` (configuration not stated): the cell number change worked out at 0.352%.
As for `Cc1ccc(NC(=O)COC(=O)CC2SC(N3CCCC3)=NC2=O)cc1` (configuration not stated), the cell number change was 0.937%. The concentration at half-maximal activity (AC50) under setting [1] is 9.2 µM [falling, partial curve, poor fit].
`COc1cc(=O)[nH]c(SCC(=O)Nc2nc3c(s2)CCCC3)n1`: the cell number change was found to be 18.7%. The AC50 under setting [1] was 0.58 µM [falling, single point].
Take `Cc1nnc(SCC(=O)N(C)CC(=O)Nc2ccccc2Cl)s1`: the cell number change is -68%. For the same molecule, the AC50 under setting [2] is 29.1 µM [falling, single point].
In the case of `Cc1sc2nc(SCC(=O)OC(C)C)n(C)c(=O)c2c1C`, the cell number change was -4.75%.
Turning to `COCCN(Cc1cn(C)nc1-c1ccc(Oc2ccccc2)cc1)C(C)C`, the cell number change was 12.1%. The AC50 under setting [1] was 6.51 µM [rising, full curve].
`CCOc1ccccc1C(=O)NCC(=O)NC(C)c1ccc(-n2ccnc2)cc1` (configuration not stated): the AC50 under setting [2] was 3.66 µM [rising, single point] and the AC50 under setting [1] was 2.91 µM [rising, partial curve, poor fit].
On to `CN(C1CCCCC1)S(=O)(=O)c1ccc2c(c1)CCC(=O)N2`, for which the cell number change was found to be 20.9%.
As for `N#Cc1ccc(NC(=O)CNc2cc(S(=O)(=O)N3CCOCC3)ccc2NCC2CCCO2)cc1` (configuration not stated), the AC50 runs as follows: under setting [2], 6.51 µM [rising, single point]; under setting [1], 6.51 µM [rising, single point].
As for `O=C(Nc1nc(-c2cc(F)ccc2F)cs1)C1=NN(c2ccccc2)C(=O)CC1`, under setting [1], the concentration at half-maximal activity (AC50) was 0.58 µM [falling, single point].
Regarding `COc1cccc(NC(=O)CNC(=O)c2ccc(C)o2)c1`, the cell number change worked out at 1.57%. Under setting [1], the AC50 is 0.116 µM [rising, full curve, poor fit].
Take `COc1ccc(C(=O)CSc2nc3[nH]ncc3c(=O)[nH]2)cc1`: the cell number change is -35%. Also, the AC50 under setting [1] was 29.1 µM [falling, single point].
Take `CN(Cc1ccccc1)C(=O)CSc1nc2ccccc2c(=O)n1Cc1ccco1`: the cell number change was -15.1%. Also, under setting [1], the AC50 was 0.146 µM [rising, full curve, poor fit].
Turning to `Nc1c(Cl)cc(-c2[nH]c3cc(C(=O)NCCO)ccc3c(=O)c2O)cc1Cl`, the cell number change is 24.6%. Further, under setting [2], the AC50 was 7.31 µM [rising, partial curve, poor fit].
For `O=[N+]([O-])c1cccc(/C=N/n2c(C3CCCCC3)n[nH]c2=S)c1`, the cell number change is -51.8%. Further, the AC50 under setting [2] is 23.1 µM [falling, partial curve]. Besides, under setting [1], the AC50 was 23.1 µM [falling, single point].
With `CC(=O)NN1C(=O)/C(=C/c2ccc(Br)o2)SC1=S`, the cell number change was found to be 357%. Moreover, the AC50 under setting [2] is 18.4 µM [rising, partial curve]. Also, the AC50 under setting [1] was 20.6 µM [falling, single point].
Turning to `CN(C)c1cccc(C(=O)NCCCSc2ccccc2)c1`, the cell number change worked out at 15.1%. Besides, under setting [1], the AC50 was 0.112 µM [rising, full curve, poor fit].
Turning to `CCN(CC(=O)Nc1ccccc1C(F)(F)F)C(=O)c1cc(-c2ccccc2)nn1-c1ccccc1`, the cell number change is 84.5%. Under setting [2], the AC50 was 20.6 µM [rising, single point].
For `Cn1c(CCCOc2ccc(Cl)cc2Cl)nnc1SCC(=O)Nc1cccc(F)c1`, the cell number change is -26.9%. Moreover, the AC50 under setting [1] is 16.4 µM [falling, partial curve].
Turning to `COCC(=O)Nc1ccc([N+](=O)[O-])cc1C`, under setting [1], the AC50 is 29.1 µM [rising, single point].
Consider `CC1=Nn2c(nc3sc4c(c3c2=O)CCCC4)SC1`, for which the cell number change is -17.3%.
On the same count and under the same terms, the result for `COc1ccc(-c2nnc(SCC(=O)c3ccc(O)cc3O)o2)cc1` reads -2.5%.
For the molecule `CC(C)(C)C(=O)Nc1ccc(S(=O)(=O)N2CCCC2)cc1`, the cell number change is -8.14%. Moreover, the AC50 under setting [1] was 29.1 µM [falling, single point].

The values are drawn from PubChem BioAssay AID2685 (National Center for Advancing Translational Sciences (NCATS), 2010).
